Measurements published in patent US9402839B2, “Selective targeting agents for mitochondria” (University of Pittsburgh—Of the Commonwealth System of …, priority 2006, dated 2016).

Test system: rats subjected to volume-controlled hemorrhagic shock
Assay: Survival of rats subjected to volume-controlled hemorrhagic shock
Assay type: in vivo, rat
Conditions: End of second phase of hemorrhage; 2 μmol/kg i.v.
Excerpt: Surgical procedures to obtain vascular access. All study protocols using rats followed the guidelines for the use of experimental animals of the US National Institutes of Health and were approved by the Institutional Animal Care and Use Committee at the University of Pittsburgh.
Male specific pathogen-free Sprague Dawley rats (CHARLES RIVER LABORATORIES, Wilmington, Mass.), weighing 150-250 g, were housed in a temperature-controlled environment with a 12-h light/dark cycle. The rats had free access to food and water. For experiments, rats were anesthetized with intramuscular ketamine HCl (30 mg/kg) and intraperitoneal sodium pentobarbital (35 mg/kg). Animals were kept in a supine position during the experiments. Lidocaine (0.5 ml of a 0.5% solution) was injected subcutaneously to provide local anesthesia at surgical cut-down sites. […]
Survival of rats subjected to volume-controlled hemorrhagic shock. Following surgical preparation and a 5-min stabilization period to obtain baseline readings, rats were subjected to hemorrhagic shock. […]
Blood pressure was recorded continuously using a commercial strain-gauge transducer, amplifier, and monitor (S90603a, SPACELABS, Redmond, Wash.). […] Hemoglobin concentration [Hb], lactate and glucose concentration were determined using an auto-analyzer (Model ABL 725, […], Westlake, Ohio). […]

## CC(C)C[C@@H](/C=C/[C@H](Cc1ccccc1)C(=O)N1CCC[C@H]1C(=O)N[C@H](C(=O)N[C@@H](CCCNC(=O)OCc1ccccc1)C(=O)NC1CC(C)(C)N([O])C(C)(C)C1)C(C)C)NC(=O)OC(C)(C)C [XJB-5-131]
  Blood lactate concentration: 5.6 ± 1.2 mEq/L
